Results published in PubChem BioAssay AID602313 (National Center for Advancing Translational Sciences (NCATS), 2012).
Among all 390,000 compounds or so, about 760 (0.19%) were called active. Inconclusive results, whose numbers are uncertain, are shown with a selection of clear calls. Calls follow the shape of the dose curve; as a rule, active = well fitted inhibition curve with a large enough effect; inconclusive = small, poorly fitted or top-dose-only effect; inactive = flat fitted curve, though single readings scatter. Potencies of inconclusive entries are doubtful fits and often do not repeat.

experiment: qHTS for Inhibitors of Vif-A3F Interactions: qHTS; conditions: HeLa A3F-eYFP + Vif (tagged APOBEC3F with the HIV-1 protein that degrades it), YFP fluorescence increase; series mostly up to 46.1 µM; activity, negative = active: at the top concentration; also: nearly all actives have a fitted effect of over 65% in size; as to activity, negative = active: % of control where 0% means no effect
Summary of the method: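 HeLa cells stably expressing A3F-eYFP plus Vif, plated and incubated overnight at 37 deg C, then exposed to compounds overnight at 37 deg C. Blocked degradation read as raised yellow fluorescence (Ex 488/Em 500-530).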
Potency is read from the fitted curve at half-maximal effect.

| Compound | Potency | activity, negative = active |
| --- | --- | --- |
| O=C(CSc1cccc[n+]1[O-])C12CC3CC(CC(C3)C1)C2 | inconclusive: 3.16 µM [inhibitor, single point] |  |
| CN(CCC#N)c1ccc(/C=C(\C#N)c2ccccn2)cc1 |  | inactive: -3.07% |
| Nc1c(C(=O)NC2CC2)sc2nc3c(c(-c4ccco4)c12)CC/C3=C/c1ccco1 | inconclusive: 35.5 µM [inhibitor, single point] |  |
| N#Cc1c(N)nc(SCC(=O)C23CC4CC(CC(C4)C2)C3)c(C#N)c1-c1ccc(Cl)cc1 |  | inactive: -4.03% |
| CCN1CCCC1CNc1ncnc2c1[nH]c1ccc(F)cc12 (configuration not stated) | inconclusive: 6.31 µM [inhibitor, single point] |  |
| O=C1C=C(N(CCO)Cc2ccccc2)c2ccccc2C1=O |  | inactive: 13% |
| CC(=O)N1c2ccc(S(=O)(=O)N3CCC(C(=O)NCc4ccc(Cl)cc4)CC3)cc2CC1C (configuration not stated) |  | inactive: 0.139% |
| CCc1ccccc1NC(=O)C1CCCN(c2nccc(C)n2)C1 (configuration not stated) | inconclusive: 35.5 µM [inhibitor, single point] |  |
| O=C(CSc1nc2ccccc2o1)Nc1nc2c(s1)CCCC2 | inconclusive: 25.1 µM [inhibitor, single point] |  |
| CCOC(=O)C1(CCCc2ccccc2)CCN(Cc2cnn(C)c2)CC1 | inconclusive: 22.4 µM [inhibitor, single point] |  |
| COc1ccc(OC)c2sc(N3CCc4ccccc4C3)nc12 |  | inactive: -2.13% |
| O=C(Nc1nnc(-c2ccco2)o1)c1ccc(Br)s1 | inconclusive: 35.5 µM [inhibitor, single point] |  |
| CCC(C)NC(=O)c1ccc2c(c1)N(Cc1cccc(Cl)c1)C(=O)c1ccccc1S2=O (configuration not stated) |  | inactive: -5.14% |
| Cc1c(/C=N\NC(=O)c2csc3ccccc23)cnn1C | inconclusive: 5.62 µM [inhibitor, single point] |  |
| CCn1c(O)c(/C=N/N=C/c2ccc(OC)cc2)c2cc(C3=NNC(=O)CC3)ccc21 | active: 4.47 µM |  |
| COc1ccc(NC(=O)CSc2nnc(-c3cccc(O)c3)o2)cc1 | inconclusive: 3.16 µM [inhibitor, single point] |  |
| S=C1NCCOCCNC(=S)NCCOCCOCCOCCN1 | inconclusive: 35.5 µM [inhibitor, partial curve, poor fit] |  |
| COc1cc(SC)ccc1C(=O)N(CC(=O)Nc1ccccc1Br)Cc1ccco1 | inconclusive: 3.55 µM [inhibitor, single point] |  |
| O=C(NC1CC1)c1cccc2c1C(=O)c1ccc(N3CCC(Cc4ccccc4)CC3)cc1S2(=O)=O | active: 22.4 µM |  |
| COC(=O)CNC(c1ccccc1)c1cc(Br)ccc1N (configuration not stated) | inconclusive: 2.51 µM [inhibitor, single point] |  |
| CNC(=S)N/N=C(\C)c1cccc([N+](=O)[O-])c1 | inconclusive: 35.5 µM [inhibitor, single point] |  |
| COc1ccc2nc(C)cc(Sc3nc4ccccc4s3)c2c1 |  | inactive: 4.57% |
| Cc1[nH]n(-c2ccccc2)c(=O)c1/C=N/O |  | inactive: -12.9% |
| CC(=O)NNC(=O)c1csc(Cc2c(Cl)sc3ccc(Cl)cc23)n1 | inconclusive: 20 µM [inhibitor, single point] |  |

Compounds listed so far that have two or more sulfur atoms, in the order listed:

| Compound | Potency | activity, negative = active |
| --- | --- | --- |
| O=C(CSc1nc2ccccc2o1)Nc1nc2c(s1)CCCC2 | inconclusive: 25.1 µM [inhibitor, single point] |  |
| S=C1NCCOCCNC(=S)NCCOCCOCCOCCN1 | inconclusive: 35.5 µM [inhibitor, partial curve, poor fit] |  |
| COc1ccc2nc(C)cc(Sc3nc4ccccc4s3)c2c1 |  | inactive: 4.57% |
| CC(=O)NNC(=O)c1csc(Cc2c(Cl)sc3ccc(Cl)cc23)n1 | inconclusive: 20 µM [inhibitor, single point] |  |

Remaining list, next part

| Compound | Potency | activity, negative = active |
| --- | --- | --- |
| COc1ccc(S(=O)(=O)N2CCC(n3c(C(F)(F)F)nc4cccnc43)CC2)cc1OC |  | inactive: -9.02% |
| CN(C(=O)CSc1ncnc2sc(-c3ccccc3)cc12)C1CCS(=O)(=O)C1 (configuration not stated) | inconclusive: 35.5 µM [inhibitor, single point] |  |
| COc1ccc(-c2cc(C(F)(F)F)n3nc(C(=O)N4CCN5CCCC5C4)cc3n2)cc1OC (configuration not stated) |  | inactive: -5.54% |
| Clc1nssc1=Nc1ccc(Br)cc1 |  | inactive: 0.468% |
| CN(Cc1ccccc1)c1cc(Cl)nc(N)n1 | inconclusive: 5.62 µM [inhibitor, single point] |  |
| COc1ccc(Cl)cc1-c1nc(SCC(=O)NC2CC2)n[nH]1 | inconclusive: 22.4 µM [inhibitor, single point] |  |
| CCCN(Cc1ccccc1)C(=S)Nc1ccc(OCC)cc1 |  | inactive: 4.76% |
| CCn1c(CC(=O)Nc2ccccc2C)nnc1SCC(=O)Nc1nncs1 | inconclusive: 6.31 µM [inhibitor, single point] |  |
| Cn1c(=O)[nH]c(=O)c2c1nc(Br)n2CC(O)COc1ccc(Cl)cc1 (configuration not stated) | inconclusive: 35.5 µM [inhibitor, single point] |  |
| O=c1oc2ccccc2cc1-c1csc(Nc2nc3c(F)cccc3s2)n1 | inconclusive: 17.8 µM [inhibitor, partial curve, poor fit] |  |
| COc1ccc(Cl)cc1NC(=O)Cn1cc(C(=O)c2ccncc2)c(=O)c2cc(C)ccc21 | inconclusive: 10 µM [inhibitor, partial curve] |  |
| Cc1cc(C)cc(N(C(=O)CCC(=O)Nc2cc(C)on2)C(C(=O)NC2CCCC2)c2ccco2)c1 (configuration not stated) |  | inactive: 21.2% |
| CCc1ccc(/C=C/C(=O)c2cc(Br)ccc(=O)c2O)cc1 |  | inactive: -19.2% |
| CN(C)c1ccc2c(c1)C(=NO)c1ccccc1-2 | inconclusive: 2.82 µM [inhibitor, single point] |  |
| Cc1ccc(NC(=S)Nc2ccc3[nH]c(=O)[nH]c3c2)cc1C | inconclusive: 35.5 µM [inhibitor, single point] |  |
| Cn1c(Cn2cnc(Cl)c2Cl)nc2ccccc21 |  | inactive: -0.468% |
| O=C(O)c1c(Cl)nc2ccccn12 | inconclusive: 3.16 µM [inhibitor, single point] |  |
| Cc1ccc(OCCCNC2CCCC2)cc1 |  | inactive: -3.87% |
| CC(=O)Nc1ccc(-c2cn3c(n2)SCC3)cc1 | inconclusive: 10 µM [inhibitor, partial curve, poor fit] |  |
| N/C(=N\S(=O)(=O)c1cc(C(F)(F)F)cc(C(F)(F)F)c1)c1ccc(Cl)cc1 |  | inactive: 4.2% |
| O=C(Nc1ccc2c(c1)Cc1cc([N+](=O)[O-])ccc1-2)C(F)(F)F | inconclusive: 3.55 µM [inhibitor, full curve, poor fit] |  |
| CC1(C)CC(=O)C(C=NCCN2CCN(C3CC(=O)N(c4ccc(Cl)c(Cl)c4)C3=O)CC2)=C(O)C1 (configuration not stated) | inconclusive: 35.5 µM [inhibitor, partial curve, poor fit] |  |
| C#CCOc1c(Cl)cc(/C=N/NC(N)=S)cc1OCC | inconclusive: 22.4 µM [inhibitor, partial curve, poor fit] |  |
